Data as given in PubChem BioAssay AID1053208 (Peter MacCallum Cancer Centre, 2014)
Here is one part, drawn at random, of about 17,000 reagents. 788 of them (4.7%) were called active. 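Calls rest on z-score classes alone; an extra cut-off of viability at most 70% of control was not applied to them.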 Unmarked entries are inactive. Not all columns of the deposit are shown.

- Purpose: 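Synthetic lethal interactions between gene loss and doxorubicin in osteosarcoma cells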 (primary screen)
- Cell system: mouse osteosarcoma cells, early-passage culture from an engineered mouse model of fibroblastic bone tumour
- Reagent: siRNA pool against mouse genes, 40 nM
- Time to read-out: about 120 h (48 h before drug, then 72 h with drug)
- Conditions: doxorubicin 100 nM for 72 h, roughly 30-40% inhibitory dose
- Measured: 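Luminescent ATP signal taken as viability with or without 100 nM doxorubicin for 72 h; mean of two wells set against non-targeting siRNA and turned into robust z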
- Reading the numbers: viability z-score with doxorubicin: higher = more viable cells under doxorubicin; viability z-score without drug: higher = more viable cells with knock-down alone
- Call rule: 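a pool counts as active when its viability z-score with doxorubicin is -2 or below and its z-score without drug lies between -2 and 2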

target | combined z-score class | viability z-score with doxorubicin | viability z-score without drug
Sord (sorbitol dehydrogenase) | no change with or without drug | 0 | -0.51
Sppl2c (signal peptide peptidase 2C) | no change with or without drug | -0.45 | -0.51
Mob3b (MOB kinase activator 3B) | no change with or without drug | 0.45 | -1.52
Lilrb4b | no change with or without drug | 0.45 | -0.84
Prr5l (proline rich 5 like) | high cell count with doxorubicin only | 2.14 | 1.35
Or10a3 (olfactory receptor family 10 subfamily A member 3) | no change with or without drug | -1.01 | -0.84
Nwd1 (NACHT and WD repeat domain containing 1) | no change with or without drug | 0.45 | 0.51
Zfp748 (zinc finger protein 748) | low cell count without drug only | -0.22 | -3.54
Tprn (taperin) | no change with or without drug | 0.45 | -0.51
Washc5 (WASH complex subunit 5) | no change with or without drug | -0.67 | 1.52
Glra1 (glycine receptor, alpha 1 subunit) | no change with or without drug | -0.9 | -1.52
Crebrf (CREB3 regulatory factor) | no change with or without drug | 0.56 | 1.52
Ranbp10 (RAN binding protein 10) | no change with or without drug | -0.22 | -0.34
Lyzl1 (lysozyme-like 1) | no change with or without drug | 1.35 | 0.84
Fitm2 (fat storage-inducing transmembrane protein 2) | no change with or without drug | -0.67 | -0.51
Rnf19a (ring finger protein 19A) | no change with or without drug | 0.22 | -0.51
Cd9 (CD9 antigen) | no change with or without drug | -0.9 | 0.51
Stra8 (stimulated by retinoic acid gene 8) | high cell count with doxorubicin only | 2.25 | 0.51
Comp (cartilage oligomeric matrix protein) | no change with or without drug | 0 | -0.84
C1qtnf1 (C1q and tumor necrosis factor related protein 1) | no change with or without drug | 1.35 | 0.67
Magea5 (MAGE family member A5) | no change with or without drug | -0.67 | 0.17
Sh3bp1 (SH3-domain binding protein 1) | no change with or without drug | 0.45 | 0.17
Mt4 (metallothionein 4) | no change with or without drug | -0.11 | -1.18
Twist1 (twist basic helix-loop-helix transcription factor 1) | no change with or without drug | 0.34 | -0.34
Tnfrsf25 (tumor necrosis factor receptor superfamily, member 25) | no change with or without drug | -1.12 | -1.18
Speer2 (spermatogenesis associated glutamate (E)-rich protein 2) | no change with or without drug | 1.24 | -0.34
Actl6b (actin-like 6B) | no change with or without drug | -0.67 | -1.69
Ufsp2 (UFM1-specific peptidase 2) | no change with or without drug | -0.45 | -0.17
Cttnbp2nl (CTTNBP2 N-terminal like) | no change with or without drug | 0.9 | 0.84
Ap5m1 (adaptor-related protein complex 5, mu 1 subunit) | no change with or without drug | -1.01 | -1.85
Vmn1r202 (vomeronasal 1 receptor 202) | no change with or without drug | -1.35 | -0.51
D2hgdh (D-2-hydroxyglutarate dehydrogenase) | no change with or without drug | -0.9 | 0
Endog (endonuclease G) | no change with or without drug | 1.01 | 0.84
Slc39a7 | low cell count with doxorubicin only (active) | -3.6 | -0.51
Il10rb (interleukin 10 receptor, beta) | no change with or without drug | 0.9 | 0.34
C1qtnf7 (C1q and tumor necrosis factor related protein 7) | no change with or without drug | 0.9 | 0.67
Ints2 (integrator complex subunit 2) | no change with or without drug | -0.45 | 0.17
Pced1b (PC-esterase domain containing 1B) | low cell count with doxorubicin only (active) | -2.02 | -0.51
Piwil4 (piwi-like RNA-mediated gene silencing 4) | no change with or without drug | 0.22 | -0.17
9330140K16RIK | low cell count with and without drug | -4.05 | -3.71
Cldn23 (claudin 23) | low cell count with doxorubicin only (active) | -2.14 | -1.52
Nemp2 (nuclear envelope integral membrane protein 2) | no change with or without drug | 0.11 | 0.51
Nmral1 (NmrA-like family domain containing 1) | no change with or without drug | -0.9 | 0.34
Fbxo22 (F-box protein 22) | no change with or without drug | -0.22 | 0.67
Klhl26 (kelch-like 26) | no change with or without drug | 0.9 | 1.85
Dip2b (disco interacting protein 2 homolog B) | no change with or without drug | -0.45 | -0.17
Vmn1r80 (vomeronasal 1 receptor 80) | no change with or without drug | -0.56 | -0.17
Kcnb2 | no change with or without drug | -1.35 | -0.51
Stk33 (serine/threonine kinase 33) | no change with or without drug | 0 | -0.84
Mos (Mos proto-oncogene, serine/threonine kinase) | no change with or without drug | -0.67 | 1.35
